Laboratory results published in PMC10940516.
These are yes or no findings as the source states them, for the method shown. Binding seen in cells or lysates may run through a third protein. Here binding means that the protein was enriched with, or labelled near, the bait; the list need not be complete. For some assays here: Tags and fused reporters may be left off the sequences shown.

By UniProt entry, the sequences of proteins in these tests, tags left out.
UniProt F4K5J1: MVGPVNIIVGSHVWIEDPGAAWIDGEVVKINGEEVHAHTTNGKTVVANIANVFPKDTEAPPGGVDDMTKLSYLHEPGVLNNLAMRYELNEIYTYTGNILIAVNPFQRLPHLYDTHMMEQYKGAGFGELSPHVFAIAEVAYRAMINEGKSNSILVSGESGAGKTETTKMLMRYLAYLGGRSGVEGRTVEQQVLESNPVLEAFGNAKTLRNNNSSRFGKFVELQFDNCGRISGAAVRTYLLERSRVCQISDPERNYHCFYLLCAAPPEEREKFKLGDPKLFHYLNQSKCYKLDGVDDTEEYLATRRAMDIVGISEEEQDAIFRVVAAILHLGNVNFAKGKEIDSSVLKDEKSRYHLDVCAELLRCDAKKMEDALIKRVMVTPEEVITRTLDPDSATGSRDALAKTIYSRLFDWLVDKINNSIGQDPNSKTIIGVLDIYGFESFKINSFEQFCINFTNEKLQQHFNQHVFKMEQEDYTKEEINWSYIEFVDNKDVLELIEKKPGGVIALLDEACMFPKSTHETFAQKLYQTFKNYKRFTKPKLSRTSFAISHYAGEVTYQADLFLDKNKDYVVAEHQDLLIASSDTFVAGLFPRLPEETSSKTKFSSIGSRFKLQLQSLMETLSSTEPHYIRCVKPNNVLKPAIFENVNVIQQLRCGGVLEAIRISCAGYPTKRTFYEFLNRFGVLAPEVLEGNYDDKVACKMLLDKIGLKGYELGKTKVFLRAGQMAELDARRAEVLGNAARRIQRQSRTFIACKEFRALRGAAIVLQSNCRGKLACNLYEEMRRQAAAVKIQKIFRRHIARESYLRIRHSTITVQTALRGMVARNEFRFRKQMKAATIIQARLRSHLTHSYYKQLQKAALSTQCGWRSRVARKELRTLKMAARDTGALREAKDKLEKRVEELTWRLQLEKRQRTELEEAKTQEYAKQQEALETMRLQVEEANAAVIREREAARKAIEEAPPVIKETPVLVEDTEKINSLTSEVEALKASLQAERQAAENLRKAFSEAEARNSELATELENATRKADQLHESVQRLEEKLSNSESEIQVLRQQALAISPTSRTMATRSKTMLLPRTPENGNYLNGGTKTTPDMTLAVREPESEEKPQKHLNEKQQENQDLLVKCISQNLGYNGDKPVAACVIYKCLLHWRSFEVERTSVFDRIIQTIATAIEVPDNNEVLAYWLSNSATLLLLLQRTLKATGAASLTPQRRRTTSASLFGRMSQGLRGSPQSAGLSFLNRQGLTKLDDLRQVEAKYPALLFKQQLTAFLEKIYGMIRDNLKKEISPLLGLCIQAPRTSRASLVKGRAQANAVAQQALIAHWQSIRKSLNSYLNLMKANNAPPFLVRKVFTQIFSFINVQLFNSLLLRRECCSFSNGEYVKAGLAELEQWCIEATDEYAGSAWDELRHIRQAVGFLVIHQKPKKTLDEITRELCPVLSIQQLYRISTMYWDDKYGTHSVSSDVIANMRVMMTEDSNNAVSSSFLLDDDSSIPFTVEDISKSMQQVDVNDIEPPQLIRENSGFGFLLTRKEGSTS

Experiments:
[1] = target: T1, MYOSIN BINDING PROTEIN2 fused with GFP (MYOB2-GFP) (A. thaliana) (UniProt Q9CAC4); assay: affinity purification with mass spectrometry; extracts of 3-week-old A. thaliana plants expressing MYOB2-GFP or MYOB14-GFP in lysis buffer (150 mM NaCl, 1% Ecosurf EH-9, 50 mM Tris-HCl pH 8.0); anti-GFP microbeads (uMACS), 4°C 30 min; eluted proteins identified by LC-MS/MS
T1 sequence: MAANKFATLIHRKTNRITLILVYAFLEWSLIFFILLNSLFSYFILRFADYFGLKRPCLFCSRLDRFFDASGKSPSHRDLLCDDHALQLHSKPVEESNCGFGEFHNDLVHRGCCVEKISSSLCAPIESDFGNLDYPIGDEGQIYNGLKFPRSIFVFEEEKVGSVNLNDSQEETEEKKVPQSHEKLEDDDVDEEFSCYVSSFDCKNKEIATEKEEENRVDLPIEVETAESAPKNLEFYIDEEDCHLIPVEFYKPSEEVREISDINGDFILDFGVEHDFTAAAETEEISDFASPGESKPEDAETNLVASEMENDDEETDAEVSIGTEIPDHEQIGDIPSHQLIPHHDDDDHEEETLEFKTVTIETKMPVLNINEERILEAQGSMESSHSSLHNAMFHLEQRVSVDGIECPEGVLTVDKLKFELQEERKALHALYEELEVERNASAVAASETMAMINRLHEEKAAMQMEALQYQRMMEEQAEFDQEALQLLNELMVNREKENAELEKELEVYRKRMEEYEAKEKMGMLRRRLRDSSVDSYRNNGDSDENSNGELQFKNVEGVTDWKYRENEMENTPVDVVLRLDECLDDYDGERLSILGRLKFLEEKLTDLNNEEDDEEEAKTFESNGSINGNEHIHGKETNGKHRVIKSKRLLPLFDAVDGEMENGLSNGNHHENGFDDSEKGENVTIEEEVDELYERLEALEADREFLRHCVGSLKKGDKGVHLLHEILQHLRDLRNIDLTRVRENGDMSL

[2] = target: MYOSIN BINDING PROTEIN14 fused with GFP (MYOB14-GFP) (A. thaliana) (UniProt Q9SVR1); assay: as above

binding [1]: binds
binding [2]: binds
Substance: myosin XIK (from UniProt F4K5J1 1-1531)
